Experimental findings from patent US20250034207A1, “PEPTIDES AND PEPTIDE CONJUGATES FOR TREATING MENTAL DISORDERS” (Kyoto University, priority 2016, published 2025) are described below.

This series has as its system ddY mice. Kind of series: Tail suspension test in mice after oral administration. In kind it is in vivo. The following applies: rank of relative activity versus SEQ ID NO:1, tail suspension data at 0.3 mg/kg. As for the experimental part: The tail suspension test is an experimental method used to screen potential antidepressant drugs (Can et al., 2012, J Vis Exp., 59: e3769). In the test as implemented in the Examples, a test substance is orally administered to mice (ddY mice, males, 24˜30 g) and 30 minutes later the mice are suspended by their tails for six minutes. The amount of time that a mouse is immobile (i.e. is not displaying escape behavior) during the six minutes is measured to provide an immobility time. The administration of anti-depressant drugs such as imipramine reduces immobility time. Therefore, if a reduction of immobility time is observed when testing a test substance, it can be concluded that the test substance has anti-depressant properties. Immobility is considered a despair state, and, therefore, a reduction of immobility time also indicates an increase in motivation (i.e., that the test substance has motivation-increasing properties).
AQQSY (Designed peptide) [SEQ ID NO:5] registered a Rank of 14.

The substance “AQQSYW (Designed peptide) [SEQ ID NO:41]” showed a Rank of 17.

Regarding “ESFFLSSTQAQQSY (Designed peptide) [SEQ ID NO:42]”, the Rank came out at 19.

The substance “FFLSSTQAQQSYLQ (Designed peptide) [SEQ ID NO:44]” showed a Rank of 13.

In the case of LSSTQ (Designed peptide) [SEQ ID NO:4], the Rank is given as 12.

Turning to “LSSTQAQQ (Designed peptide) [SEQ ID NO:27]”, the Rank turned out to be 11.

“LSSTQAQQS (Designed peptide) [SEQ ID NO:2]” had a Rank of 15.

On to “LSSTQAQQSF (Designed peptide) [SEQ ID NO:7]”, for which the Rank was determined as 2.

The substance “LSSTQAQQSW (Designed peptide) [SEQ ID NO:6]” returned a Rank of 1.

“LSSTQAQQSY (Designed peptide) [SEQ ID NO:1]” gave a Rank of 3.

“LSSTQAQQSY-NH2 (C-terminal amide; Designed peptide; MOD_RES 10 Carboxyl group of the C-terminus is amidated.) [SEQ ID NO:36, C-terminal amidated peptide conjugate]” displayed a Rank of 5.

Substance “LSSTQAQQSYLQGF (Designed peptide) [SEQ ID NO:43]” came in with a Rank of 18.

Substance “LSSTQAQQSYW (Designed peptide) [SEQ ID NO:37]” showed a Rank of 4.

“SSTQAQQS (Designed peptide) [SEQ ID NO:28]” yielded a Rank of 6.

“SSTQAQQSY (Designed peptide) [SEQ ID NO:3]” came in with a Rank of 7.

The substance “STQAQQSY (Designed peptide) [SEQ ID NO:29]” gave a Rank of 10.

The substance “WLSSTQ (Designed peptide) [SEQ ID NO:40]” had a Rank of 8.

For “WLSSTQAQQSY (Designed peptide) [SEQ ID NO:38]”, the Rank is given as 9.

On to “WLSSTQAQQSYW (Designed peptide) [SEQ ID NO:39]”, for which the Rank is 16.
